Data published in PubChem BioAssay AID2685 (National Center for Advancing Translational Sciences (NCATS), 2010).
The whole screen tested about 320,000 compounds, of which about 2,100 (0.66%) were called active. Inconclusive means that the source gave no clear call. Such entries were picked first, then a sample of the others. The call rests on the fitted dose curve; in most records, active means well fitted inhibition curve with a large enough effect in the signal ratio, with a control signal flat (not every such curve was filed as active); inconclusive means small, poorly fitted or top-dose-only effect, or effect the other way, or a change in a side signal; inactive means flat fitted curve, though single readings scatter; the % refers to the signal ratio. Potencies beside an inconclusive call are fits to weak or partial responses and may not hold up.

Test: qHTS Assay for Lipid Storage Modulators in Drosophila S3 Cells
Details: BODIPY lipid droplet fluorescence, 18-24 h, cells fed with added oleic acid; lipid storage change, negative = inhibition: at 46.1 µM (top of the series) unless noted
Summary of the method: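 Drosophila S3 cells got compounds at several concentrations plus oleic acid (400 uM solution). Laser-scanning cytometry with 488 nm excitation read lipid droplets at 500-530 nm and cells at 575-640 nm. Percent activity was relative to 20 uM Triacsin C.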
On the % scale 0 is the no-effect control and ±100 the full control effect; potency means the concentration at half of the fitted maximal effect.

Structure (SMILES) | lipid storage change, negative = inhibition | Potency | outcome
Cc1ccc(S(=O)(=O)N2CCC(C(=O)NNS(=O)(=O)c3ccc(Cl)cc3)CC2)cc1 | inactive: -27.5% |  | 
Cc1csc(SCC(=O)Nc2ccccc2)n1 | inconclusive: 37% |  | 
Cc1ccc(C(=O)Nc2cccc(C(F)(F)F)c2)cc1NC(=O)c1nccnc1N | inactive: -14.7% |  | 
CCCn1c(SCC(=O)NC)nnc1C(C)C |  | inconclusive: 0.259 µM [activator, full curve, poor fit] | 
CCCSC(=S)c1c(C)[nH]n(-c2ccccc2)c1=O | inconclusive: -19.9% |  | 
Cc1cc(C)n2[nH]c(=O)c(N=Nc3ccc(S(N)(=O)=O)cc3)c2n1 | inconclusive: -19% |  | 
CCOc1ccc(NC(=O)/C(=C\c2ccc(OC(C)=O)c(OC)c2)NC(C)=O)cc1 | inconclusive: -1.63% |  | 
CCCn1c(SCC(=O)NCc2ccccc2)nnc1-c1ccncc1 | inconclusive: 2.71% |  | 
NC(=O)COC(=O)c1oc2ccccc2c1CSc1ccc(Cl)cc1 |  | inconclusive: 8.2 µM [activator, partial curve] | 
CCc1nnc(NC(=O)CSc2nc3c(cc2C#N)CCC3)s1 |  | inconclusive: 1.84 µM [activator, partial curve] | 
O=C(/C(=C/c1ccc(Cl)cc1)c1nc2ccccc2[nH]1)c1cccs1 |  | inconclusive: 11.6 µM [falling, single point] | 
CS(=O)(=O)N(CCc1ccccc1)CC(=O)Nc1ccc2c(c1)OCO2 |  | inconclusive: 1.84 µM [activator, partial curve, poor fit] | 
NC(=O)COC(=O)c1cc(=O)[nH]c2ccc(S(=O)(=O)Nc3ccc(F)cc3)cc12 | inconclusive: 49.3% |  | 
COc1cccc(CC(=O)Nc2nc3c(s2)C(=O)CC(C)(C)C3)c1 | inactive: 6.69% |  | 
Cc1cc(NC(=O)CSCc2ccc([N+](=O)[O-])cc2)no1 | inconclusive: -0.409% |  | 
CCC(c1nnc(SCC(=O)Nc2ccc(NC(C)=O)cc2)n1Cc1ccccc1)N(C)C (stereo not drawn) | inconclusive: -1.28% |  | 
O=C(CSc1nc2ccccc2o1)NCc1ccc2c(c1)OCO2 |  | inconclusive: 2.59 µM [activator, partial curve] | 
CCCCCC1CC(CC(C)C(=O)Nc2nncs2)C(=O)O1 (stereo not drawn) | inconclusive: -10.9% |  | 
CC(C(=O)OCC(=O)Nc1cccc(S(=O)(=O)N2CCOCC2)c1)N1C(=O)c2ccccc2C1=O (stereo not drawn) | inconclusive: -20.7% |  | 
CCCNC(=O)c1cn(CC)c2cc(N3CCN(C(=O)c4ccco4)CC3)c(F)cc2c1=O |  | active: 16.4 µM | 
OC(COc1ccccc1)CN1C2=NCCCN2c2ccccc21 (stereo not drawn) | inconclusive: 21.9% |  | 
CC(C)(C)n1cc(S(=O)(=O)c2ccccc2)[nH]c1=O | inconclusive: 13.4% |  | 
COc1cccc(NC(=O)c2ccc(S(=O)(=O)NCc3cccnc3)cc2)c1 |  | inconclusive: 0.82 µM [activator, full curve] | 
CCOC(=O)c1ccc2c(c1)NCc1cccc(OC)c1O2 | inconclusive: -5.26% |  | 
C/C(CC(=O)Nc1cc(C)ccn1)=N\NC(=O)C(=O)Nc1cccc(C)c1 | inconclusive: -9.46% |  | 
O=C(O)CCCNc1cc(N2CCN(C(=O)c3ccco3)CC2)c2noc3c2c1C(=O)c1ccccc1-3 |  | inconclusive: 20.6 µM [falling, single point] | 

Structure (SMILES) | lipid storage change, negative = inhibition | Potency | outcome
CCCCc1cc(=O)oc2cc(OCC(=O)N3CCOCC3)ccc12 | inconclusive: -40.1% |  | 
COc1ccc(-n2c(Cc3cc(=O)[nH]c(=O)[nH]3)nnc2SCC(=O)N2CCCC2)cc1 |  | inconclusive: 0.92 µM [falling, partial curve] | 
Cc1ccc(NC(=O)C2C(C(=O)O)C3C=CC2C32CC2)cc1 (stereo not drawn) | inconclusive: 71.9% |  | 
CCN(CC)S(=O)(=O)c1ccc(Cl)c(C(=O)NC)c1 | inconclusive: 85.2% |  | 
Cn1nc(C(=O)NCc2cccs2)c2ccccc2c1=O | inconclusive: 23.4% |  | 
COc1ccc(CNC(=O)NCc2ccc(OC)c(OC)c2)cc1OC | inconclusive: 1.77% |  | 
CC(=O)NC(CC(=O)OCC(=O)c1c(N)n(C)c(=O)n(C)c1=O)c1ccccc1 (stereo not drawn) | inconclusive: -14.9% |  | 
O=C1c2cccc3cccc(c23)C(=O)N1c1ccc(O)cc1 | inconclusive: -22.2% |  | 
O=C(Nc1ccc(F)cc1)Nc1sccc1-c1nc2ccccc2s1 | inconclusive: -5.73% |  | 
COc1ccc(NC(=O)CSCC(=O)Nc2ccccc2N2CCCCC2)cc1 | inconclusive: -35.7% [at 0.0737 µM] |  | 
Cc1ccc(C)c(C(=O)COC(=O)C2CCN(c3ccc(C(F)(F)F)cn3)CC2)c1 | inconclusive |  | 
COCCSc1nnc(NC(=O)c2ccc3c(c2)OCO3)s1 | inconclusive: 11.4% |  | 
CCOc1ccc(NC(=O)Nc2ccc(Br)cn2)cc1 | inconclusive: 9.63% |  | 
CCOc1ccc(-c2n[nH]c(=S)n2/N=C/c2cc3c(cc2[N+](=O)[O-])OCO3)cc1 |  | inconclusive: 9.2 µM [activator, partial curve] | 
CCOc1ccc(S(=O)(=O)NCC2CCCO2)cc1NC(=O)c1ccccc1F (stereo not drawn) |  |  | inactive [at 46.1 µM]
COc1ccccc1C(=O)N1CCN=C1c1ccccc1 | inconclusive: 40.4% |  | 
CCOc1ccc2[nH]cc(S(=O)(=O)c3ccc(Cl)cc3)c(=O)c2c1 | inconclusive: 18.1% |  | 
CCCN(C(=O)c1ccc(N2CCCC2=O)cc1)C1CCS(=O)(=O)C1 (stereo not drawn) |  | inconclusive: 0.411 µM [activator, full curve, poor fit] | 
CCN(CC(=O)Nc1cc(Cl)ccc1C)C(=O)Cc1sc(C)nc1-c1ccc(F)cc1 | inconclusive: 51.3% |  | 
COc1cc([N+](=O)[O-])ccc1NC(=S)Nn1cnnc1 | inconclusive: 9.36% |  | 
Cc1oc2c(Cl)c(Cl)c(O)c(CN(C)C)c2c1C(=O)c1ccc(Cl)cc1 | inconclusive: 57.9% |  | 
Cc1sc(NC(=O)c2cc(-c3ccc(Cl)cc3)nc3ccccc23)c(C(N)=O)c1C |  | inconclusive: 20.6 µM [falling, single point] | 
CCCCNC(=O)c1cc2c(-c3ccc(Cl)cc3)nn(C)c2s1 |  | inconclusive: 8.2 µM [activator, partial curve] | 
OCC1(Cc2ccc(Cl)cc2)CCN(Cc2ccccc2F)CC1 | inconclusive: -4.22% |  | 
COc1ccc(C(=O)c2sc3nc(-c4ccc(OC)cc4)ccc3c2N)cc1 | inconclusive: -16.9% |  | 
C/C(=N/NC(=O)CNC(=O)c1cccnc1)c1ccc(Cl)c(Cl)c1 | inconclusive: 15.2% |  | 

5 entries from above, sorted by SMILES length, descending.
Structure (SMILES) | lipid storage change, negative = inhibition | Potency | outcome
O=C(O)CCCNc1cc(N2CCN(C(=O)c3ccco3)CC2)c2noc3c2c1C(=O)c1ccccc1-3 |  | inconclusive: 20.6 µM [falling, single point] | 
CCCNC(=O)c1cn(CC)c2cc(N3CCN(C(=O)c4ccco4)CC3)c(F)cc2c1=O |  | active: 16.4 µM | 
Cc1cc(C)n2[nH]c(=O)c(N=Nc3ccc(S(N)(=O)=O)cc3)c2n1 | inconclusive: -19% |  | 
C/C(=N/NC(=O)CNC(=O)c1cccnc1)c1ccc(Cl)c(Cl)c1 | inconclusive: 15.2% |  | 
CCc1nnc(NC(=O)CSc2nc3c(cc2C#N)CCC3)s1 |  | inconclusive: 1.84 µM [activator, partial curve] | 

Later entries

Structure (SMILES) | lipid storage change, negative = inhibition | Potency | outcome
O=C(O)[C@H]1CCCN1C(=O)c1ccccc1N1C(=O)[C@@H]2Cc3c([nH]c4ccccc34)C(c3cccc(Cl)c3)N2C1=O (stereo partly drawn) | inconclusive: 21.4% |  | 
O=C(NCCC1CCCCN1S(=O)(=O)c1cccs1)C(=O)NCc1ccccc1 (stereo not drawn) | inconclusive |  | 
Cc1cc(C)nc(N2CCCC(C(=O)Nc3cccc(Cl)c3)C2)n1 (stereo not drawn) | inconclusive: -33.6% |  | 
O=C(CNC(=O)c1ccc(Br)cc1)c1ccc(Br)cc1 |  | inconclusive: 29.1 µM [activator, single point] | 
Cc1[nH]c2ccccc2c1C(=O)/C=C/c1ccccc1 | inconclusive: -30.5% |  | 
CC1(C)Cc2c(c(N3CCOCC3)nc3sc4c(NCc5ccco5)nnnc4c23)CS1 |  | inconclusive: 1.46 µM [activator, partial curve] | 
S=c1nc2c(n[nH]1)c1ccccc1n2CCc1ccccc1 | inconclusive: -23.4% |  | 
CC(=O)NCCCc1nc2ccccc2n1Cc1ccccc1F | inconclusive: 42% |  | 
CCNc1c([N+](=O)[O-])c(=O)n(CC)c2ccccc12 | inconclusive: 4.46% |  | 
COc1ccccc1CN(C)c1ccc(S(=O)(=O)N2CCN(C)CC2)cn1 |  | inconclusive: 29.1 µM [activator, single point] | 
COc1cc(NC(=O)c2ccc(OC)c([N+](=O)[O-])c2)ccc1NC(=O)c1cccs1 | inconclusive: 69.5% |  | 
Cc1nnc(NC(=O)CSc2nnc(CCNC(=O)c3ccccc3F)n2C)s1 | inconclusive: 31.8% |  | 
O=C(/C=C/c1cccc(Cl)c1)NCCc1ccccc1 | inactive: 8.05% |  | 
COc1cccc(NC(=S)NCc2cccnc2)c1 | inactive: -1.84% |  | 
COc1ccc(NC(=O)c2c(NC(=O)CCC(=O)O)sc3c2CCCCC3)cc1 |  | inconclusive: 29.1 µM [rising, single point] | 
CN(C)S(=O)(=O)c1cccc(NC(=O)c2ccc(S(=O)(=O)N3CCCC3)cc2)c1 |  | inconclusive: 4.61 µM [falling, full curve] | 
N#CCN(C(=O)COC(=O)C1CC2CCCC(C1)C2=O)c1ccccc1 (stereo not drawn) | inconclusive |  | 
CCOC(=O)c1cnc(-n2nc(C)cc2C)nc1NC1CCCCC1 |  | inconclusive: 13 µM [falling, partial curve, poor fit] | 
COc1ccc(S(=O)(=O)N2CC(O)C[C@H]2C(=O)OCC(=O)N2CCCCCC2)cc1 (stereo partly drawn) | inconclusive: 9.88% |  | 
O=C(Cn1c(NCCO)nc2ccccc21)NCCc1ccc(F)cc1 |  | inconclusive: 29.1 µM [falling, single point] | 
Cc1ccc[n+](CC(=O)Nc2ccc(C)c(C)c2)c1 | inconclusive: 45.8% |  | 
COc1cccc(N2CCN(Cc3ncc(-c4ccccc4)o3)CC2)c1 | inconclusive: 133% |  | 
C/C(CC(=O)N1CCN(C=O)CC1)=N\NC(=O)c1cc2ccccc2cc1O | inconclusive: 20.5% |  | 
COC(=O)CSCc1nc2ccccc2[nH]c1=O | inconclusive: -0.018% |  | 
O=C(Nc1ccc(Br)cc1)c1cc([N+](=O)[O-])cc([N+](=O)[O-])c1 |  | inconclusive: 18.4 µM [falling, single point] | 
Cn1c(=O)c(=O)n(C)c2cc(S(=O)(=O)CCC(=O)N3CCCCC3)ccc21 |  | inconclusive: 6.51 µM [falling, partial curve] | 
